Test results: publication PMC6433683
These are yes or no findings as the source states them, for the method shown. In cells and extracts the contact can be indirect. For part of these data: A result given as binding can be weak or reduced; the word gives no strength. Where a sequence is shown, tags or fusion partners need not be part of it.

The chains behind the UniProt entries cited, without tags or fusion partners. Where a name states a change or a piece, a line headed by the entry shows the natural chain unless it says otherwise.
UniProt P08253: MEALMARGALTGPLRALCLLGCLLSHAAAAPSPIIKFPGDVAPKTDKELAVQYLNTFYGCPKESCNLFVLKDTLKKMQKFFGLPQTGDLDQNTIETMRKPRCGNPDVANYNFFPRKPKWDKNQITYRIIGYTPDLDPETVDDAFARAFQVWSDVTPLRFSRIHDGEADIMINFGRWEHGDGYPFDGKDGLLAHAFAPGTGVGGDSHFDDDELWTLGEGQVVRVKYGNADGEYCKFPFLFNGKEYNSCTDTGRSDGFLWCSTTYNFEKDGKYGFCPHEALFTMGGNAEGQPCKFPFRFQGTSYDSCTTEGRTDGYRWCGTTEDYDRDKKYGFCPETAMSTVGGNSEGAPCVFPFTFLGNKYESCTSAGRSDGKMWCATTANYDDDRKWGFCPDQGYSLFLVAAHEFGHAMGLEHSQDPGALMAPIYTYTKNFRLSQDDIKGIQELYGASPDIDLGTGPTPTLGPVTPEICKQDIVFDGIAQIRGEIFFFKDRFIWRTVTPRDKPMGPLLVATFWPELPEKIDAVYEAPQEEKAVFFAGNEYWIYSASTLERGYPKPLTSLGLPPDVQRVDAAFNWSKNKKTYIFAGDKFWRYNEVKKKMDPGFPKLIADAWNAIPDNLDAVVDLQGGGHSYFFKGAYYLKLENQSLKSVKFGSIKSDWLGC

Legend:
[1] = molecular target: T1, GP73‐c‐flag (Golgi phosphoprotein 73, from pCMV3‐GOLM1‐flag) (human) (UniProt Q8NBJ4); experiment: co-IP; 293T cells transfected for 48 h with pCMV3‐GOLM1‐flag and pCMV‐MMP‐2‐HA; RIPA lysate; Protein A/G beads with anti‐flag antibody; immunoblot
T1 sequence: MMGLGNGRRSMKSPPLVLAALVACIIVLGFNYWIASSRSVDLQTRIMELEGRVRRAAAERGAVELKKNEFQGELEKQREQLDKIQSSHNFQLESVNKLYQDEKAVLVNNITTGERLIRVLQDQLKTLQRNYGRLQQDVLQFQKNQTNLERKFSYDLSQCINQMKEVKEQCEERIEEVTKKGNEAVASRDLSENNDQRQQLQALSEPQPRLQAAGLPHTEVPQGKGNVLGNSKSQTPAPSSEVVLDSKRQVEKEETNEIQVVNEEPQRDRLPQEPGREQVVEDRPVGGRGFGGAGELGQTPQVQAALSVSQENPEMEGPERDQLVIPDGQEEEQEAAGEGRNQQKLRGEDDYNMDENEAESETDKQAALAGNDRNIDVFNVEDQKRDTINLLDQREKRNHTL

[2] = molecular target: T2, GP73 Δ2‐12 deletion mutant with c‐flag tag (human) (UniProt Q8NBJ4); experiment: co-IP; flag-tagged GP73 deletion mutants and pCMV‐MMP2 cotransfected into 293T cells for 48 h; Protein A/G beads with anti‐flag antibody; immunoblot
T2 sequence: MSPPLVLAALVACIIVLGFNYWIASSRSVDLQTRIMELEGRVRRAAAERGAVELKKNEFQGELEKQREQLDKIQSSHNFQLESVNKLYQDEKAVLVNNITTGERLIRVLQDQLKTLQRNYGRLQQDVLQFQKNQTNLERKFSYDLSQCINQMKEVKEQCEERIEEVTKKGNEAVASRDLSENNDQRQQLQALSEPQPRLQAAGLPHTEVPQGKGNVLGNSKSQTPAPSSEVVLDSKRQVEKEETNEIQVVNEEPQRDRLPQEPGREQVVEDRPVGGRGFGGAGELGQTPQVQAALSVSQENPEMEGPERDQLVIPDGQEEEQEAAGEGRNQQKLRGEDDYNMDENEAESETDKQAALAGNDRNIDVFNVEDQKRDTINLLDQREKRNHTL

[3] = molecular target: T3, GP73 Δ5‐12 deletion mutant with c‐flag tag (human) (UniProt Q8NBJ4); experiment: as above
T3 sequence: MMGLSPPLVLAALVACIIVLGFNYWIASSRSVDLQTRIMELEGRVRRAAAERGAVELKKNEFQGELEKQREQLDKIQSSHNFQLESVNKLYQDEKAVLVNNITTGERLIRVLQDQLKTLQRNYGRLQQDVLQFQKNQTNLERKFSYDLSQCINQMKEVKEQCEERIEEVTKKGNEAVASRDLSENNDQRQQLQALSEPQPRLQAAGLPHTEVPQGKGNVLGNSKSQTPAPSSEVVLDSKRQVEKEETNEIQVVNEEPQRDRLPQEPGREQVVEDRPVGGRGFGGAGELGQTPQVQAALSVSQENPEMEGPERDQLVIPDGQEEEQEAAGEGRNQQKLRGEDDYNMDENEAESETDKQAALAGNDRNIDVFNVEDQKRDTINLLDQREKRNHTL

Substance	binding [1]	binding [2]	binding [3]
MMP‐2‐c‐HA (matrix metalloproteinase‐2, from pCMV‐MMP‐2‐HA) (from UniProt P08253)	binds		
exogenous MMP‐2 (from pCMV‐MMP‐2) (from UniProt P08253)		no binding	no binding
